No constants are given. Whether binding was seen depends on the method and setting. In cells and extracts the contact can be indirect. Some results given as binding are weak or reduced against the parent protein; the word gives no strength.
Experiments:
Assay in all cases: co-IP; anti-HA immunoprecipitation (Profound Mammalian HA Tag IP/Co IP Kit) of HA-pVHL from M-PER lysates of stably transfected Vhl-null murine ES cells; endogenous murine VBC members detected by immunoblot
[1] = target: wild-type HA-tagged human pVHL (in Vhl-null murine ES cells) (human) (UniProt P40337)
[2] = target: Y112H (Type 2A) mutant HA-tagged human pVHL (in Vhl-null murine ES cells) (human) (UniProt P40337)
[3] = target: R200W (Chuvash polycythemia) mutant HA-tagged human pVHL (in Vhl-null murine ES cells) (human) (UniProt P40337)
[4] = target: L188V (Type 2C) mutant HA-tagged human pVHL (in Vhl-null murine ES cells) (human) (UniProt P40337)
[5] = target: R167Q (Type 2B) mutant HA-tagged human pVHL (in Vhl-null murine ES cells) (human) (UniProt P40337)

By UniProt entry, the sequences of proteins in these tests, tags left out. Where a name states a change or a piece, a line headed by the entry shows the natural chain unless it says otherwise.
UniProt P40337: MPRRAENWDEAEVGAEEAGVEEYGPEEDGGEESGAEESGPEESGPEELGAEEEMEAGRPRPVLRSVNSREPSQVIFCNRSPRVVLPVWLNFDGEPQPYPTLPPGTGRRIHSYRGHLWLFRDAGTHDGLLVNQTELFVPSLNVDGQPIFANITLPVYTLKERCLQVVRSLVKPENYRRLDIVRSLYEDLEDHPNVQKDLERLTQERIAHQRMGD
UniProt Q9D4H8: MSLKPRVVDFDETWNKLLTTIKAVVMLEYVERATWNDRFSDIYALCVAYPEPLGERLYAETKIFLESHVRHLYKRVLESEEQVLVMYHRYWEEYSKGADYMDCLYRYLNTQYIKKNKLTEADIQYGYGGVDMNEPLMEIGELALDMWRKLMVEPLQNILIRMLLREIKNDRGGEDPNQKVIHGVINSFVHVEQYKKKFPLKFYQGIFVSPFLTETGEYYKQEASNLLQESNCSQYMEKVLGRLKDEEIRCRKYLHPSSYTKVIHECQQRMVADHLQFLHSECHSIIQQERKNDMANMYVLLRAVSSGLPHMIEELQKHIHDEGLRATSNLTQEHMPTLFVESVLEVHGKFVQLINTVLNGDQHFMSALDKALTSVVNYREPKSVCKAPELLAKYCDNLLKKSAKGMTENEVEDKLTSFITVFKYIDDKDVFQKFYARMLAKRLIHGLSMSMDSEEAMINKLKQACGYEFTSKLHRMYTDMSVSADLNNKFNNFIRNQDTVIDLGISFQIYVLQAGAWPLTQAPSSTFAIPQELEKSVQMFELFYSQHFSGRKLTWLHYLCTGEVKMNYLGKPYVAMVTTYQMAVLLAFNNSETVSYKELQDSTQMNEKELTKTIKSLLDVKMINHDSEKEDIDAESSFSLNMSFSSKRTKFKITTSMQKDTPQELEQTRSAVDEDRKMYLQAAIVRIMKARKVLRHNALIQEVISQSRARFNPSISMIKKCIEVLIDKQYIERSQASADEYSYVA
UniProt P62869: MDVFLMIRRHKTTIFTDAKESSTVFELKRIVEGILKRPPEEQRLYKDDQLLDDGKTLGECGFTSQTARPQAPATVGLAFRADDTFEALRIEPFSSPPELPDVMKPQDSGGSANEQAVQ

Measured: binding

murine Cul2 (endogenous in ES cells) (from UniProt Q9D4H8 1-745)
binds: [1] | [2] | [3] | [4] | [5]

murine Elongin B (endogenous in ES cells) (from UniProt P62869 1-118)
binds: [1] | [2] | [3] | [4] | [5]

Source: PMC2583047
